Reference: the supplement of paper PMC10849652
The list shows a part of the results. Residues, ends and D or L forms follow the SMILES beside them. *: point of attachment. Cbz = O=C(OCc1ccccc1)*

The chains behind the UniProt entries cited, without tags or fusion partners. Where a name states a change or a piece, a line headed by the entry shows the natural chain unless it says otherwise.
UniProt Q9BUZ4: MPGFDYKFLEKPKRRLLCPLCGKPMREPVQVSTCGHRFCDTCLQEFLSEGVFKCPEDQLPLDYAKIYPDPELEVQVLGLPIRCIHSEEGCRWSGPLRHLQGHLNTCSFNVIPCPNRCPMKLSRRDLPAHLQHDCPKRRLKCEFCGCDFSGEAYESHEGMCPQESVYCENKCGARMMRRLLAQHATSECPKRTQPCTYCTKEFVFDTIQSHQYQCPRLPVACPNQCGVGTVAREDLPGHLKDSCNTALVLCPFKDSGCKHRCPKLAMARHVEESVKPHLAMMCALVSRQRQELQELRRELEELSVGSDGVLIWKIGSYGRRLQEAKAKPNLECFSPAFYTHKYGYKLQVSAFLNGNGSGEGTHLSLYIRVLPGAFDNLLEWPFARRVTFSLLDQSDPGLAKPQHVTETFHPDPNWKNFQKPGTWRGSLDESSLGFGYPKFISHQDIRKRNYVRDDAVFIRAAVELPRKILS
UniProt Q96Q05, whole entry, looked up: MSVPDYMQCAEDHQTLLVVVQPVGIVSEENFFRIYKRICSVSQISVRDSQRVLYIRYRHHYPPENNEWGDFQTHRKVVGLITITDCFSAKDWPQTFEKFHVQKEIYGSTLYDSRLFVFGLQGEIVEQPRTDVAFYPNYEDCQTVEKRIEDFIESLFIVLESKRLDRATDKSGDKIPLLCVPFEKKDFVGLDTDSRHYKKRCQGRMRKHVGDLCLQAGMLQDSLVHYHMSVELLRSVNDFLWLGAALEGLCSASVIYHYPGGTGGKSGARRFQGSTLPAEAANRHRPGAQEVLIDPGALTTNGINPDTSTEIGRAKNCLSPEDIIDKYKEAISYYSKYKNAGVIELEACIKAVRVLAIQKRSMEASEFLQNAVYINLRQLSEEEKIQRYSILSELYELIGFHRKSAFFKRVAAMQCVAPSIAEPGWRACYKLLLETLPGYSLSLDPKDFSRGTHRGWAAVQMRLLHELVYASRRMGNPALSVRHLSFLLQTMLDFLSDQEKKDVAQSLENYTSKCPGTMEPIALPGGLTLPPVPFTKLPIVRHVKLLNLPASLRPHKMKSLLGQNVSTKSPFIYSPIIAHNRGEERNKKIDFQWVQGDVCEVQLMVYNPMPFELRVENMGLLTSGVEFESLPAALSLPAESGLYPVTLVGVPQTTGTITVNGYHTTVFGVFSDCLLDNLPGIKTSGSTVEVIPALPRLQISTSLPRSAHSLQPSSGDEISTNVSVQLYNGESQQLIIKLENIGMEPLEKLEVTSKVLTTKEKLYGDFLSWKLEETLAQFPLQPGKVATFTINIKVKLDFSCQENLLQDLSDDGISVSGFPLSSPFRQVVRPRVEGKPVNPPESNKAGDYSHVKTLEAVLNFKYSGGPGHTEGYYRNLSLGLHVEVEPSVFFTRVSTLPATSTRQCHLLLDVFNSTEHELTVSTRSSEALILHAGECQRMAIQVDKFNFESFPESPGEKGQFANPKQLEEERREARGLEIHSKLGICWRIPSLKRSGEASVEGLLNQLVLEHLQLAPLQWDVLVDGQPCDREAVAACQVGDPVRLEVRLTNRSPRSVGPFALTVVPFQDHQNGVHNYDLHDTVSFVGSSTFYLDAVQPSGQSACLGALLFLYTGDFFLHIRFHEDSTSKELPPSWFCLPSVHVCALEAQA
UniProt P09493, whole entry, looked up: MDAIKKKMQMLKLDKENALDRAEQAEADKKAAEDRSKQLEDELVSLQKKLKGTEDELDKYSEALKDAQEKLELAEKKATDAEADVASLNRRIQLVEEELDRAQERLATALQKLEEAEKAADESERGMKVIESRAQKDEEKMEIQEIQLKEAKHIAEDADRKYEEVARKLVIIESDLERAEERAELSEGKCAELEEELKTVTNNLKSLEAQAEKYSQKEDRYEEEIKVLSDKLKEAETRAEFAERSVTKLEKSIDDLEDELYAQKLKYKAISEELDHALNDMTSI
UniProt Q8IUR0, whole entry, looked up: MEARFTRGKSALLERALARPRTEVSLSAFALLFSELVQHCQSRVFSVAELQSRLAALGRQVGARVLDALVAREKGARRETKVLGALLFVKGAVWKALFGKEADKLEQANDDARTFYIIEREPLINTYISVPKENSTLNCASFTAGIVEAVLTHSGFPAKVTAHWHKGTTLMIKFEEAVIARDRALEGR
UniProt P06753, whole entry, looked up: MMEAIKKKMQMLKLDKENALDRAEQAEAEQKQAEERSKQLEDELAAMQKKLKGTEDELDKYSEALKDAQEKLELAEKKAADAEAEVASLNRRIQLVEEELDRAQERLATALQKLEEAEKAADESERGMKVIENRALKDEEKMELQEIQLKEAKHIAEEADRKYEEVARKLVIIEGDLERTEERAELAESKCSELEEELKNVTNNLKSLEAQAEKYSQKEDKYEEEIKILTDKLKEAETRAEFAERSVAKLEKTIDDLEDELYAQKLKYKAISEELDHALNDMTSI
UniProt Q9Y4K3: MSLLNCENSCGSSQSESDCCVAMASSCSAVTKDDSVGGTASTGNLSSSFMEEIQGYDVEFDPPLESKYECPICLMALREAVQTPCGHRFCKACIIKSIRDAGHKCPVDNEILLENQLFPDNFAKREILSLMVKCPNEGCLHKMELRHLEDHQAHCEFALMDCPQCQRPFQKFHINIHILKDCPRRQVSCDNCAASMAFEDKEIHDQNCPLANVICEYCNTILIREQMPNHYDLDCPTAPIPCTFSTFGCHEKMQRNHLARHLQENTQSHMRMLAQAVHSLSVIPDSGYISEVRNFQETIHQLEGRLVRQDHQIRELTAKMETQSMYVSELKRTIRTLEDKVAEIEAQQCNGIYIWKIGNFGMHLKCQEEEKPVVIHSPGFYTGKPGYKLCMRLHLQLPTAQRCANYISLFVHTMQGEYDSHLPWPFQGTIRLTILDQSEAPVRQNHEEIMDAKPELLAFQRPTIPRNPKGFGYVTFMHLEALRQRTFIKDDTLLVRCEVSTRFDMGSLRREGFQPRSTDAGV
UniProt O15164: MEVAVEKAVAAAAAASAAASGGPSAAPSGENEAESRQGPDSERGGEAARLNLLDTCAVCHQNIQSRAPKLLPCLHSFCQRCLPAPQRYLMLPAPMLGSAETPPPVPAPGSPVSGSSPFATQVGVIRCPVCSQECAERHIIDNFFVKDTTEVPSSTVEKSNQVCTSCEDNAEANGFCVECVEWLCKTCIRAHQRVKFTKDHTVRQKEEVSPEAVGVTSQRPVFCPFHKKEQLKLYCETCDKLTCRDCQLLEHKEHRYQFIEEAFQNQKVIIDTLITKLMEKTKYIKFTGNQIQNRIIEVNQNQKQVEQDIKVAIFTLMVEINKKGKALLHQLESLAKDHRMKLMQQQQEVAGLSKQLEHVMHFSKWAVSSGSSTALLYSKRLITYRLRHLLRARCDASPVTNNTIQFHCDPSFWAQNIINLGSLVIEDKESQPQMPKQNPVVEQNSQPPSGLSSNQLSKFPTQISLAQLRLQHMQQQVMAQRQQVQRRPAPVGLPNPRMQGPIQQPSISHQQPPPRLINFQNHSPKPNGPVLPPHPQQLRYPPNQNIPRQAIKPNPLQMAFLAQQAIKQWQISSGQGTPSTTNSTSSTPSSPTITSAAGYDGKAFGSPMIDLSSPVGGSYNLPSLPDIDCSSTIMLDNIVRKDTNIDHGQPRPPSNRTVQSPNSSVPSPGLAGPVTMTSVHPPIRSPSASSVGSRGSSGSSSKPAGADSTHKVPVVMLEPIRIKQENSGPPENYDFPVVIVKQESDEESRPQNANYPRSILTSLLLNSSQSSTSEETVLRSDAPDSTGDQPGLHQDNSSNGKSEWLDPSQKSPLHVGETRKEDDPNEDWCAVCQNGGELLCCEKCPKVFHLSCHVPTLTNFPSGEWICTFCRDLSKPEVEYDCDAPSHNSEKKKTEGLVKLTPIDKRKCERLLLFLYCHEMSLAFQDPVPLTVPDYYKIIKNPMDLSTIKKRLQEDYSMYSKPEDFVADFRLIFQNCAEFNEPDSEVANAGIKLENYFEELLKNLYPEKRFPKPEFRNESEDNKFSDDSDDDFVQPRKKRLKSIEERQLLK
UniProt Q15645: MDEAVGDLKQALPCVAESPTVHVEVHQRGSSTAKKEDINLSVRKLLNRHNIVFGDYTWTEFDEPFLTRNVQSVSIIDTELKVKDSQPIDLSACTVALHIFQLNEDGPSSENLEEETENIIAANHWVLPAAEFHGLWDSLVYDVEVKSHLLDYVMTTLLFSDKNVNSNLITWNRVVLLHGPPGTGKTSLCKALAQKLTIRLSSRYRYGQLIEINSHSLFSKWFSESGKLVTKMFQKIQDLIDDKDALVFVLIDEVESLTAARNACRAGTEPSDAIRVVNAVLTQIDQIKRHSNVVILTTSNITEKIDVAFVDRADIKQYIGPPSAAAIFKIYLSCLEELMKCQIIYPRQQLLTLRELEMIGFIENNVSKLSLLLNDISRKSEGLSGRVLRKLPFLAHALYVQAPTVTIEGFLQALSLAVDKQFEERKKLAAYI
UniProt Q12931: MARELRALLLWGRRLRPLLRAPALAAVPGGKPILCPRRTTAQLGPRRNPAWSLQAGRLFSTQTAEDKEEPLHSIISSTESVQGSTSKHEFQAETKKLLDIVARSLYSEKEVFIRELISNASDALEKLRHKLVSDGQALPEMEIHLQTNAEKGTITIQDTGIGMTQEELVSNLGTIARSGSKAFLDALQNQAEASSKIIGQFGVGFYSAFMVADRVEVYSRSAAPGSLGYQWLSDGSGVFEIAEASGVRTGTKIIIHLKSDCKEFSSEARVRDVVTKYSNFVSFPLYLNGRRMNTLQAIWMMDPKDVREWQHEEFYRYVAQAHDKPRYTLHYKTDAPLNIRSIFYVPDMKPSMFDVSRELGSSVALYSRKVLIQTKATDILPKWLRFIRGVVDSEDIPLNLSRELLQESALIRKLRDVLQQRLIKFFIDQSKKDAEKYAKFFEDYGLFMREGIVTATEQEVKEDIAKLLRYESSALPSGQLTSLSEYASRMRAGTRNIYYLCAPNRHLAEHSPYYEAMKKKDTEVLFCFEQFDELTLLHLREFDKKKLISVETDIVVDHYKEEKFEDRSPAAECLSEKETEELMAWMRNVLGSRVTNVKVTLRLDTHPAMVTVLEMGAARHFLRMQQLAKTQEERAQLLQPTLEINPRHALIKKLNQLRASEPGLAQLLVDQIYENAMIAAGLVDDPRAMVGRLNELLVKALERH
UniProt P13693: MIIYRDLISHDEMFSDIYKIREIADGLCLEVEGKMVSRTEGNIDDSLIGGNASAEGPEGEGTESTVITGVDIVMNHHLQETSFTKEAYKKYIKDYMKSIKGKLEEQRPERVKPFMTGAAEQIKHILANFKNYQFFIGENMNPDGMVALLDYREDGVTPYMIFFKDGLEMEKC
UniProt Q9Y5S1: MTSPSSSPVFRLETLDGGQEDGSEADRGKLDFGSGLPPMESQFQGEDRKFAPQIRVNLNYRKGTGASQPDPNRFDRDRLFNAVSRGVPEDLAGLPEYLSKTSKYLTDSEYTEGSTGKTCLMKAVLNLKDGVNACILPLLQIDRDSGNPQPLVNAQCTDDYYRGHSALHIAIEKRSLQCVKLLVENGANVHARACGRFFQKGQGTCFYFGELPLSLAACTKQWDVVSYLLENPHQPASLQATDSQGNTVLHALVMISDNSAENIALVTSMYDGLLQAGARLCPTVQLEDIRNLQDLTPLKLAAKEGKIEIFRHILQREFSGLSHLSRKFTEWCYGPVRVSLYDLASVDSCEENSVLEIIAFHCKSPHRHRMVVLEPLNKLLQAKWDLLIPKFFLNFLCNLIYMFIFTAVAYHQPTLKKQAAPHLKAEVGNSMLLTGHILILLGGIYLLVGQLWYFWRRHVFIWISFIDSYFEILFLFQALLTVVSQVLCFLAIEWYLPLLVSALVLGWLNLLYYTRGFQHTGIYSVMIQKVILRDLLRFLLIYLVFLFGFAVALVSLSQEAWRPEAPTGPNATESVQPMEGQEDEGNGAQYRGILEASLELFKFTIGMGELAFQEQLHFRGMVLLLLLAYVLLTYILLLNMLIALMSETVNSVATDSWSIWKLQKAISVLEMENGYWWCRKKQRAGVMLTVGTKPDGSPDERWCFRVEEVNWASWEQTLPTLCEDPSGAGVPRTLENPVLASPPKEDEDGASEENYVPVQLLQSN
UniProt Q53FA7: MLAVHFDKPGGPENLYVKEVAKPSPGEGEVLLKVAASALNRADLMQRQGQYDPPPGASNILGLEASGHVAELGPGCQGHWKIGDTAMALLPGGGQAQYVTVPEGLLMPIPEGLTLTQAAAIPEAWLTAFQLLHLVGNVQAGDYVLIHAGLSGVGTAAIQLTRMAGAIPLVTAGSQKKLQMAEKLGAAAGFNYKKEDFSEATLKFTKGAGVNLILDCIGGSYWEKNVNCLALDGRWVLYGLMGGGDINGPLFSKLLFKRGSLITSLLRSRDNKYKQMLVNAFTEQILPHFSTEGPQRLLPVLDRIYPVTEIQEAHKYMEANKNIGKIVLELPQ

What was measured:
Assay in all cases: log2 fold change, soluble protein after heating vs DMSO (PISA); higher = thermal stabilisation; K562 cells, 10 uM, 30 min; active = over 0.2 and 3.5 SD of the protein, either way, in both replicates (recomputed)
erlotinib = compound: C#Cc1cccc(Nc2ncnc3cc(OCCOC)c(OCCOC)cc23)c1 [erlotinib]
Procedure, shortened: (§1)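 K562 cells at 2×10^6 cells/mL were treated with 10 μM compound for 30 min. Aliquots were heated for 3 min across 48°C-58°C, pooled, and extracted in PBS with 0.5% NP-40 at 4°C; soluble protein was the supernatant after 21,000xg for 90 min. Soluble protein was quantified by TMTpro 16plex LC-MS/MS with channel sums equalised, and reported as log2 fold change in thermal stability against DMSO controls, with values from duplicates.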

[1] = compound: C/C(=N\NC(=O)C1=CC(=CC=C1)S(=O)(=O)N2CCOCC2)/C3=C(C=CC(=C3)Cl)O
Procedure, shortened: as §1

[2] = compound: C1=CC(=C(C=C1Cl)C2=NC3=NC=CN=C3C(=N2)NC4=CC=NC=C4)F
Procedure, shortened: as §1

[3] = compound: C1=CC(=CC=C1C2=NC3=C(N2)C=C(C=C3)C(=O)N)OC4=CC=C(C=C4)Cl
Procedure, shortened: as §1

[4] = compound: C1=CC2=C(C=CC(=C2)/C=C\3/C(=O)NC(=NCC4=CC=CS4)S3)N=C1
Procedure, shortened: as §1

[5] = compound: C1=CC2=NC=CN=C2C=C1/C=C/3\C(=O)NC(=O)S3
Procedure, shortened: as §1

[6] = compound: C1=CC=C(C=C1)C2=NC(=C(N2)C3=CC=NC=C3)C4=CC(=C(C=C4)Cl)O
Procedure, shortened: as §1

[7] = compound: C1=CC=C2C(=C1)C3=NNC4=CC=CC(=C43)C2=O
Procedure, shortened: as §1

[8] = compound: C1CCN(C1)C(=O)NC2=CC=CC(=C2)NC3=NC=C(C(=N3)NCCC4=CN=CN4)Br
Procedure, shortened: as §1

[9] = compound: C1CN(CCC1(CC2=CC=C(C=C2)Cl)N)C3=NC=NC4=C3C=CN4
Procedure, shortened: as §1

IRAK-1-4 Inhibitor I = compound: C1COCCN1CCN2C3=CC=CC=C3N=C2NC(=O)C4=CC(=CC=C4)[N+](=O)[O-] [IRAK-1-4 Inhibitor I]
Procedure, shortened: as §1

ibrutinib = compound: C=CC(=O)N1CCC[C@@H](n2nc(-c3ccc(Oc4ccccc4)cc3)c3c(N)ncnc32)C1 [ibrutinib]
Procedure, shortened: as §1

[10] = compound: CC(=O)c1cnc2ccc(-c3cc(Cl)c(O)c(Cl)c3)nc2c1N[C@H]1CC[C@H](CN(C)C)CC1
Procedure, shortened: as §1

ralimetinib = compound: CC(C)(C)Cn1c(N)nc2ccc(-c3[nH]c(C(C)(C)C)nc3-c3ccc(F)cc3)nc21 [ralimetinib]
Procedure, shortened: as §1

[11] = compound: CC(C)(O)CC(=O)NCCn1ccc2ncnc(Nc3ccc(Oc4cccc(C(F)(F)F)c4)c(Cl)c3)c21
Procedure, shortened: as §1

[12] = compound: CC(C)C1=C2N=C(C=C(N2N=C1)NCC3=CC=CC=C3)NCCCCCCN
Procedure, shortened: as §1

[13] = compound: CC(C)C[C@@H](C=O)NC(=O)[C@H](CC(C)C)NC(=O)[C@H](CC(C)C)NC(=O)OCc1ccccc1
Procedure, shortened: as §1

pinometostat = compound: CC(C)N(C[C@H]1O[C@@H](n2cnc3c(N)ncnc32)[C@H](O)[C@@H]1O)[C@H]1C[C@@H](CCc2nc3cc(C(C)(C)C)ccc3[nH]2)C1 [pinometostat]
Procedure, shortened: as §1

[14] = compound: CC1=C(C(CC(=O)N1)C2=CC=C(C=C2)C(F)(F)F)C(=O)NC3=C(C=C4C(=C3)C=NN4)F
Procedure, shortened: as §1

[15] = compound: CC1=C(C2=C(C=C1)C(=O)C3=CC=CC=C3N2CCCN)C
Procedure, shortened: as §1

Measured: log2 fold change

TRAF4 (UniProt Q9BUZ4)
inactive: erlotinib 0.048 | [1] 0.096 | [2] -0.08 | [3] -0.016 | [4] -0.03 | [5] 0.021 | [6] -0.032 | [7] -0.052 | [8] 0.022 | [9] -0.017 | IRAK-1-4 Inhibitor I -0.054 | ibrutinib 0.05 | [10] -0.028 | ralimetinib 0.028 | [11] 0.143 | [12] 0.008 | [13] 0.075 | pinometostat -0.088 | [14] -0.049 | [15] -0.085

TRAPPC9 isoform 2 (UniProt Q96Q05)
inactive: erlotinib 0.045 | [1] 0.036 | [2] -0.061 | [3] 0.016 | [4] -0.028 | [5] 0.005 | [6] 0.055 | [7] 0.05 | [8] -0.041 | [9] 0.262 | IRAK-1-4 Inhibitor I -0.047 | ibrutinib -0.098 | [10] -0.015 | ralimetinib 0.006 | [11] -0.032 | [12] 0.02 | [13] -0.048 | pinometostat 0.046 | [14] 0.045 | [15] 0.034

TPM1 (UniProt H7BYY1)
inactive: erlotinib -0.015 | [1] 0.148 | [2] 0.028 | [3] 0.015 | [4] 0.054 | [5] 0.033 | [6] -0.048 | [7] -0.023 | [8] 0.032 | [9] 0.048 | IRAK-1-4 Inhibitor I 0.087 | ibrutinib 0.021 | [10] 0.012 | ralimetinib -0.043 | [11] -0.004 | [12] 0.041 | [13] -0.023 | pinometostat -0.061 | [14] -0.004 | [15] 0.025

TPM1 isoform 4 (UniProt P09493)
inactive: erlotinib 0 | [1] -0.029 | [2] 0.046 | [3] 0.015 | [4] -0.004 | [5] 0.004 | [6] -0.022 | [7] 0.029 | [8] 0.017 | [9] 0.044 | IRAK-1-4 Inhibitor I 0.02 | ibrutinib -0.017 | [10] -0.005 | ralimetinib -0.028 | [11] 0.008 | [12] 0.065 | [13] -0.041 | pinometostat -0.099 | [14] 0.007 | [15] -0.006

TRAPPC5 (UniProt Q8IUR0)
inactive: erlotinib 0.015 | [1] 0.139 | [2] -0.023 | [3] -0.011 | [4] 0.083 | [5] 0.002 | [6] 0.045 | [7] 0.003 | [8] 0.031 | [9] -0.081 | IRAK-1-4 Inhibitor I -0.024 | ibrutinib 0 | [10] -0.009 | ralimetinib 0.101 | [11] -0.119 | [12] -0.094 | [13] 0.038 | pinometostat 0.078 | [14] 0.028 | [15] -0.004

Quoted from above (two entries):
TRAF4 (UniProt Q9BUZ4)
inactive: erlotinib 0.048 | [1] 0.096 | [2] -0.08 | [3] -0.016 | [4] -0.03 | [5] 0.021 | [6] -0.032 | [7] -0.052 | [8] 0.022 | [9] -0.017 | IRAK-1-4 Inhibitor I -0.054 | ibrutinib 0.05 | [10] -0.028 | ralimetinib 0.028 | [11] 0.143 | [12] 0.008 | [13] 0.075 | pinometostat -0.088 | [14] -0.049 | [15] -0.085

TRAPPC9 isoform 2 (UniProt Q96Q05)
inactive: erlotinib 0.045 | [1] 0.036 | [2] -0.061 | [3] 0.016 | [4] -0.028 | [5] 0.005 | [6] 0.055 | [7] 0.05 | [8] -0.041 | [9] 0.262 | IRAK-1-4 Inhibitor I -0.047 | ibrutinib -0.098 | [10] -0.015 | ralimetinib 0.006 | [11] -0.032 | [12] 0.02 | [13] -0.048 | pinometostat 0.046 | [14] 0.045 | [15] 0.034

Remaining list, next part

TPM3 isoform 4 (UniProt P06753)
inactive: erlotinib 0.001 | [1] -0.043 | [2] -0.011 | [3] 0.066 | [4] -0.106 | [5] -0.067 | [6] -0.05 | [7] -0.086 | [8] 0.078 | [9] 0.09 | IRAK-1-4 Inhibitor I 0.029 | ibrutinib 0.01 | [10] 0.002 | ralimetinib -0.096 | [11] 0.048 | [12] 0.015 | [13] -0.001 | pinometostat -0.024 | [14] 0.037 | [15] -0.032

TSC22D1 (UniProt Q15714)
inactive: erlotinib 0.032 | [1] 0.022 | [2] 0.123 | [3] -0.023 | [4] -0.073 | [5] 0.061 | [6] -0.011 | [7] -0.005 | [8] -0.042 | [9] 0.047 | IRAK-1-4 Inhibitor I -0.011 | ibrutinib -0.015 | [10] 0.023 | ralimetinib -0.017 | [11] -0.067 | [12] 0.036 | [13] 0.047 | pinometostat -0.074 | [14] -0.02 | [15] -0.031

TRAF6 (UniProt Q9Y4K3)
inactive: erlotinib -0.067 | [1] 0.077 | [2] 0.082 | [3] 0.009 | [4] -0.06 | [5] -0.031 | [6] -0.019 | [7] 0.06 | [8] 0.039 | [9] 0.082 | IRAK-1-4 Inhibitor I 0.016 | ibrutinib 0.035 | [10] -0.103 | ralimetinib -0.039 | [11] -0.033 | [12] 0.093 | [13] 0.055 | pinometostat 0.084 | [14] -0.025 | [15] -0.061

TPRKB (UniProt Q9Y3C4)
inactive: erlotinib -0.002 | [1] 0.053 | [2] -0.006 | [3] 0.036 | [4] 0.037 | [5] 0.024 | [6] 0.005 | [7] -0.02 | [8] -0.042 | [9] -0.012 | IRAK-1-4 Inhibitor I 0.05 | ibrutinib 0.019 | [10] -0.1 | ralimetinib -0.021 | [11] 0.024 | [12] 0.094 | [13] -0.031 | pinometostat -0.022 | [14] -0.025 | [15] 0.039

TRIM24 (UniProt O15164)
inactive: erlotinib 0.092 | [1] -0.026 | [2] -0.041 | [3] -0.045 | [4] 0.013 | [5] 0.022 | [6] 0.056 | [7] -0.069 | [8] -0.102 | [9] -0.064 | IRAK-1-4 Inhibitor I -0.028 | ibrutinib 0.009 | [10] -0.195 | ralimetinib -0.024 | [11] 0.05 | [12] -0.125 | [13] 0.12 | pinometostat 0.047 | [14] -0.038 | [15] 0.015

TRIP13 (UniProt Q15645)
inactive: erlotinib 0.022 | [1] 0.057 | [2] 0.037 | [3] 0.02 | [4] -0.001 | [5] 0.023 | [6] 0.043 | [7] -0.002 | [8] 0.011 | [9] 0.074 | IRAK-1-4 Inhibitor I 0.015 | ibrutinib -0.013 | [10] -0.005 | ralimetinib -0.027 | [11] -0.008 | [12] -0.032 | [13] -0.032 | pinometostat -0.025 | [14] 0.028 | [15] -0.012

TRAP1 (UniProt Q12931)
inactive: erlotinib -0.013 | [1] 0.03 | [2] 0.062 | [3] -0.02 | [4] -0.033 | [5] 0.01 | [6] -0.03 | [7] -0.024 | [8] -0.005 | [9] 0.049 | IRAK-1-4 Inhibitor I 0.042 | ibrutinib 0.011 | [10] 0.015 | ralimetinib 0.011 | [11] -0.002 | [12] -0.007 | [13] -0.034 | pinometostat -0.052 | [14] 0.016 | [15] -0.011

TSC22D2 (UniProt O75157)
inactive: erlotinib -0.012 | [1] 0 | [2] 0.036 | [3] -0.038 | [4] 0.004 | [5] 0.041 | [6] -0.114 | [7] 0.013 | [8] -0.017 | [9] -0.04 | IRAK-1-4 Inhibitor I 0 | ibrutinib 0.007 | [10] 0.027 | ralimetinib -0.051 | [11] 0.007 | [12] 0.036 | [13] 0.092 | pinometostat -0.013 | [14] 0 | [15] -0.069

TPT1 (UniProt P13693)
inactive: erlotinib -0.025 | [1] 0.07 | [2] 0.077 | [3] 0.025 | [4] 0.054 | [5] 0.002 | [6] 0.048 | [7] 0.03 | [8] -0.003 | [9] 0.011 | IRAK-1-4 Inhibitor I 0.02 | ibrutinib 0 | [10] -0.019 | ralimetinib -0.016 | [11] -0.046 | [12] 0.006 | [13] 0.025 | pinometostat -0.015 | [14] -0.012 | [15] 0.12

TRPV2 (UniProt Q9Y5S1)
inactive: erlotinib 0.01 | [1] 0.059 | [2] 0.036 | [3] -0.007 | [4] -0.009 | [5] 0.05 | [6] 0.037 | [7] -0.04 | [8] -0.066 | [9] 0.017 | IRAK-1-4 Inhibitor I 0.008 | ibrutinib 0 | [10] 0 | ralimetinib -0.02 | [11] -0.032 | [12] 0.175 | [13] -0.056 | pinometostat -0.02 | [14] 0.002 | [15] 0.057

TP53I3 (UniProt Q53FA7)
inactive: erlotinib 0.007 | [1] 0.025 | [2] 0.022 | [3] 0.006 | [4] -0.064 | [5] 0.034 | [6] -0.045 | [7] -0.073 | [8] -0.002 | [9] 0.029 | IRAK-1-4 Inhibitor I -0.001 | ibrutinib 0.025 | [10] 0.011 | ralimetinib 0.005 | [11] 0.027 | [12] 0.072 | [13] -0.071 | pinometostat -0.001 | [14] -0.001 | [15] 0.009
